Measured values as given in PubChem BioAssay AID2685 (National Center for Advancing Translational Sciences (NCATS), 2010).
The other results are listed elsewhere or left out. These are further read-outs of the screen, such as a control signal, another cell line or another target. No call is given for them. Most of these compounds were active or inconclusive in the main read-out, so they are no random draw. The note in brackets gives the kind of curve behind each potency; many fits are weak.

Test: qHTS Assay for Lipid Storage Modulators in Drosophila S3 Cells;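 as to cell number change: cells counted by Cell Tracker Red CMTPX staining in the red channel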
Settings: BODIPY lipid droplet fluorescence, 18-24 h; for cell number change: measured here: cell count max response, cells fed with added oleic acid
Procedure, shortened: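 Drosophila S3 cells got compounds at several concentrations plus oleic acid (400 uM solution). Laser-scanning cytometry with 488 nm excitation read lipid droplets at 500-530 nm and cells at 575-640 nm. Percent activity was relative to 20 uM Triacsin C.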

[1] = measured here: cell number channel AC50, cells fed with added oleic acid
[2] = measured here: lipid fluorescence (Fed channel) AC50, cells fed with added oleic acid

Structure (SMILES) | cell number change [%] | AC50 [1] | AC50 [2]
CCOc1cc(C2NN=C(c3ccccc3)S2)ccc1OCc1ccc(F)cc1 (stereo not given) | 51.9 | 1.64 µM [rising, full curve] | 3.26 µM [rising, partial curve]
CCc1ccc(C)c(OC(=O)c2cncc(Br)c2)c1 | 3.52 | – | 29.1 µM [rising, single point]
COc1ccc2[nH]c(=O)c(CN(Cc3cccnc3)C(=O)Nc3ccccc3)cc2c1 | – | 0.146 µM [rising, full curve, poor fit] | 0.517 µM [rising, partial curve]
CCN(CC(=O)Nc1cccc(OC)c1)C(=O)c1ccncc1 | 3.23 | – | 0.651 µM [rising, single point]
COc1ccc(CCNC(=O)C2c3ccccc3C(=O)N2CCC(C)C)cc1OC (stereo not given) | 6.38 | 0.231 µM [rising, full curve, poor fit] | –
COC(OC)C1(C)C(C#N)=C(N)Oc2c1c(=O)oc1ccccc21 (stereo not given) | 27.8 | 4.61 µM [rising, full curve, poor fit] | 1.64 µM [rising, full curve, poor fit]
COc1cccc(SCC2CSc3nc4ccccc4c(=O)n32)c1 (stereo not given) | 8.17 | – | 0.651 µM [rising, single point]
O=C(CN1CCC(C(O)(c2ccccc2)c2ccccc2)CC1)Nc1ccccc1 | -24.1 | 0.58 µM [falling, full curve] | 29.1 µM [falling, single point]
O=C(NCc1ccccc1Cl)c1cc2ccccc2oc1=O | 5.28 | – | 29.1 µM [rising, single point]
NC(=S)Nc1ccc2cc[nH]c2c1 | 5.61 | – | 0.411 µM [falling, single point]
COc1cc(CC(=O)OCC(=O)Nc2ncc(Cl)cc2Cl)cc(OC)c1OC | -4.93 | – | 2.31 µM [rising, full curve]
O=C(Cc1ccc(F)cc1)Nc1ccc2[nH]ncc2c1 | -0.293 | – | –
NC(=O)NCc1cccs1 | 75.5 | 2.91 µM [rising, full curve] | 29.1 µM [rising, partial curve]
CCn1c(COc2ccccc2)nnc1SCC(=O)NCc1ccco1 | 4.04 | – | 1.16 µM [falling, full curve]
O=C(COc1ccccc1[N+](=O)[O-])OCC(=O)N1CCC(Cc2ccccc2)CC1 | 4.56 | – | 0.517 µM [falling, single point]
OCCC1CN(CC2CCCCC2)CCN1CC1CCCCC1 (stereo not given) | 3.94 | – | 16.4 µM [rising, partial curve]
COc1ccc(/C=N/NS(=O)(=O)c2ccc(C)cc2)cc1OC(=O)c1ccccc1 | -8.67 | – | 0.92 µM [rising, partial curve]
CCCCC[n+]1ccn(C2=C([O-])c3ccccc3C(=O)/C2=N\S(=O)(=O)c2ccc(Cl)cc2)c1 | – | – | 6.51 µM [falling, single point]
COc1ccc(CCn2c(-c3ccc(C(C)(C)C)cc3)n[nH]c2=S)cc1OC | -0.577 | – | –

By substructure, those above with a Cl atom.
Structure (SMILES) | cell number change [%] | AC50 [1] | AC50 [2]
O=C(NCc1ccccc1Cl)c1cc2ccccc2oc1=O | 5.28 | – | 29.1 µM [rising, single point]
COc1cc(CC(=O)OCC(=O)Nc2ncc(Cl)cc2Cl)cc(OC)c1OC | -4.93 | – | 2.31 µM [rising, full curve]
CCCCC[n+]1ccn(C2=C([O-])c3ccccc3C(=O)/C2=N\S(=O)(=O)c2ccc(Cl)cc2)c1 | – | – | 6.51 µM [falling, single point]

More structures:

Structure (SMILES) | cell number change [%] | AC50 [1] | AC50 [2]
CCCNC(=O)NC(=O)CSc1nc2ccccc2c(=O)n1Cc1ccncc1 | – | – | 6.51 µM [rising, single point]
CS(=O)(=O)N1CCC(C(=O)NCC2CCCO2)CC1 (stereo not given) | – | – | 7.31 µM [falling, single point]
Cc1ccc(N(C(C)C(=O)Nc2ccc(S(=O)(=O)N3CCOCC3)cc2)S(C)(=O)=O)cc1 (stereo not given) | 23.3 | – | 0.651 µM [falling, single point]
CS(=O)(=O)ON=C1CCN(S(=O)(=O)c2ccccc2)CC1 | -58.1 | 18.4 µM [falling, single point] | 16.4 µM [falling, partial curve]
CCOc1ccc(-c2ccc(SCC(=O)Nc3nnc(CC)s3)nn2)cc1 | -17.2 | 0.82 µM [falling, single point] | 0.82 µM [falling, single point]
CCc1cc2c3c([nH]c2cc1S(=O)(=O)NCCCOC)CC(C)(C)CC3=O | -26.8 | – | 23.1 µM [falling, single point]
Cc1ccc(-c2ccc(=O)n(CC(=O)NCc3ccco3)n2)cc1 | -3.16 | – | –
COc1ccc(N2CCN(C(=O)CSc3nc4nc(C)cc(C)n4n3)CC2)cc1 | 25.9 | – | 8.2 µM [rising, partial curve, poor fit]
Cc1ccc(CNC(=O)COC(=O)c2c(C)noc2C)cc1 | -84.4 | 14.6 µM [falling, partial curve, poor fit] | 2.31 µM [falling, partial curve]
COc1ccc(C(=O)Nc2ccc3ccccc3c2)c(OC)c1 | -31.8 | 2.06 µM [falling, full curve] | 29.1 µM [falling, single point]
CN(Cc1ccccc1)c1nc2c(c(=O)[nH]c(=O)n2C)n1Cc1ccccc1Cl | – | 6.51 µM [rising, single point] | 6.51 µM [rising, single point]
CC(C)N(NC(=O)c1cccc2ccccc12)C(C)C | – | – | 6.51 µM [falling, single point]
O=C(c1ccc(Cn2c(=S)[nH]c3ccccc3c2=O)cc1)N1CCN(c2ccccn2)CC1 | 18.3 | – | 6.51 µM [rising, single point]
CCOc1ccc(NC(=O)CN(C)S(=O)(=O)c2cccs2)cc1 | 43.6 | 7.31 µM [rising, partial curve] | 6.51 µM [rising, single point]
CCc1cc2ccccc2nc1SCC(=O)N1CCN(C(=O)c2ccco2)CC1 | 10.5 | – | 5.17 µM [rising, single point]
CN(C(=O)COC(=O)/C=C/c1ccc(C(F)(F)F)cc1)C1CCS(=O)(=O)C1 (stereo not given) | -1.56 | – | –
Oc1ccc(-c2c(-c3ccsc3)sc3ccccc23)cc1 | -32.7 | 16.4 µM [falling, single point] | –
O=C(COc1ccccc1)N1N=C(c2cccnc2)CC1(O)C(F)(F)F (stereo not given) | 37.8 | 1.84 µM [rising, partial curve, poor fit] | 0.461 µM [rising, full curve]
CCn1c(C(=O)O)c(S(=O)(=O)c2ccc(Cl)cc2)c2ccccc21 | 32.4 | 4.11 µM [rising, full curve, poor fit] | –

Structure (SMILES) | cell number change [%] | AC50 [1] | AC50 [2]
CC(C)(C)c1ccc(-n2ncc3c2CCCC3NC(=O)c2cnccn2)cc1 (stereo not given) | -30.6 | 0.231 µM [falling, full curve, poor fit] | 0.92 µM [falling, full curve]
CCN(CC)c1ncnc2sc3c(c12)CCC3 | 10.3 | – | 0.00517 µM [falling, full curve, poor fit]
O=C(CCNS(=O)(=O)c1ccc(Cl)cc1)N1CCN(c2ccccn2)CC1 | 9.24 | – | 0.206 µM [falling, single point]
Cc1ccc(OCC(=O)NC(=S)Nc2ccc(Br)cn2)cc1C | 10.4 | 0.0206 µM [rising, partial curve, poor fit] | 0.164 µM [rising, partial curve]
COc1ccc(C2(c3ccc(OC)cc3)NC(=O)N(CC(=O)NCC(F)(F)F)C2=O)cc1 | 17.1 | 3.66 µM [rising, single point] | –
O=C(CN1CCOCC1)Nc1nc2ccc(F)cc2s1 | 15.2 | – | 6.51 µM [falling, partial curve, poor fit]
O=C(CN1CCN(c2cccc(Cl)c2)CC1)NC1CCCc2ccccc21 (stereo not given) | 55.6 | 10.3 µM [rising, partial curve] | –
O=C(COc1ccc2c(-c3ccccc3)cc(=O)oc2c1)N[C@H](Cc1c[nH]c2ccccc12)C(=O)O | -13.6 | – | –
Cc1ccc(S(=O)(=O)CC(=O)c2ccccc2)cc1 | -32.1 | 29.1 µM [falling, single point] | 0.00461 µM [falling, full curve, poor fit]
N/C(Cc1ccc(Cl)cc1Cl)=N\OC(=O)Cc1cccs1 | 41.1 | 20.6 µM [rising, single point] | 16.4 µM [rising, single point]
CCS(=O)(=O)N1CCC(C(=O)NCCCN2CCCCCC2)CC1 | -19.3 | – | 20.6 µM [falling, partial curve]
CCOc1ccccc1NC(=O)NCc1ccc(F)cc1 | 6.21 | – | –
Cc1ccc(C)c(N(C(=O)Cn2nnc3ccccc32)C(C(=O)NCc2ccco2)c2ccncc2)c1 (stereo not given) | 22 | – | 2.06 µM [rising, partial curve]
CC(=O)Oc1cccc(N2C(=O)CC(Nc3ccc(N4CCOCC4)cc3)C2=O)c1 (stereo not given) | -7.01 | – | –
C#CCOCCOCCOCCNc1nc(N2CCN(C(=O)C(Cc3ccc(O)cc3)n3cc(C(N)C(C)CC)nn3)CC2)nc(N2CCN(C(=O)C(Cc3ccc(O)cc3)n3cc(C(N)C(C)CC)nn3)CC2)n1 (stereo not given) | -11.7 | – | 3.66 µM [falling, full curve, poor fit]
Cc1c(F)cccc1NC(=O)CCC(=O)O | -11.4 | – | 29.1 µM [falling, single point]
N#Cc1cccc(S(=O)(=O)N2CCN(c3ccnc4cc(Cl)ccc34)CC2)c1 | – | 3.66 µM [rising, partial curve, poor fit] | 6.51 µM [rising, single point]
Cc1ccccc1Cn1c(C(=O)OC(C)C)cc2c1ccn2C | -28.5 | – | 3.66 µM [falling, full curve]
